# Values of other authors in patent publication US6096293A, “Antiplaque oral composition and method” (priority 1999, dated 2000).
# At least one compound was matched to its structure with a doubt left.
# Tested on: A. viscosus, A. naeslundii, S. mutans and S. sanguis
# Settings: Evans 1977; cited from earlier work
smiles,measurement,value
CCCCCCc1ccc(O)cc1O [hexylresorcinol],inhibition of in vitro growth or plaque formation,did not inhibit in vitro growth or plaque formation
